These results are taken from article PMC10214474.

Sequences of proteins named here, by UniProt entry; tags and fusion partners are left off. A change or cut given only in a name is not applied to a line headed by its entry.
UniProt P63073: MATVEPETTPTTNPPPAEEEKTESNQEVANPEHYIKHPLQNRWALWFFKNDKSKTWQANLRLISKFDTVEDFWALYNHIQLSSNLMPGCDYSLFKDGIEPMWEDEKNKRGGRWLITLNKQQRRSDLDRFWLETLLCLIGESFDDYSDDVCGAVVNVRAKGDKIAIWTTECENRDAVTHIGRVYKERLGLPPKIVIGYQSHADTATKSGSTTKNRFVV
UniProt Q7TMB8: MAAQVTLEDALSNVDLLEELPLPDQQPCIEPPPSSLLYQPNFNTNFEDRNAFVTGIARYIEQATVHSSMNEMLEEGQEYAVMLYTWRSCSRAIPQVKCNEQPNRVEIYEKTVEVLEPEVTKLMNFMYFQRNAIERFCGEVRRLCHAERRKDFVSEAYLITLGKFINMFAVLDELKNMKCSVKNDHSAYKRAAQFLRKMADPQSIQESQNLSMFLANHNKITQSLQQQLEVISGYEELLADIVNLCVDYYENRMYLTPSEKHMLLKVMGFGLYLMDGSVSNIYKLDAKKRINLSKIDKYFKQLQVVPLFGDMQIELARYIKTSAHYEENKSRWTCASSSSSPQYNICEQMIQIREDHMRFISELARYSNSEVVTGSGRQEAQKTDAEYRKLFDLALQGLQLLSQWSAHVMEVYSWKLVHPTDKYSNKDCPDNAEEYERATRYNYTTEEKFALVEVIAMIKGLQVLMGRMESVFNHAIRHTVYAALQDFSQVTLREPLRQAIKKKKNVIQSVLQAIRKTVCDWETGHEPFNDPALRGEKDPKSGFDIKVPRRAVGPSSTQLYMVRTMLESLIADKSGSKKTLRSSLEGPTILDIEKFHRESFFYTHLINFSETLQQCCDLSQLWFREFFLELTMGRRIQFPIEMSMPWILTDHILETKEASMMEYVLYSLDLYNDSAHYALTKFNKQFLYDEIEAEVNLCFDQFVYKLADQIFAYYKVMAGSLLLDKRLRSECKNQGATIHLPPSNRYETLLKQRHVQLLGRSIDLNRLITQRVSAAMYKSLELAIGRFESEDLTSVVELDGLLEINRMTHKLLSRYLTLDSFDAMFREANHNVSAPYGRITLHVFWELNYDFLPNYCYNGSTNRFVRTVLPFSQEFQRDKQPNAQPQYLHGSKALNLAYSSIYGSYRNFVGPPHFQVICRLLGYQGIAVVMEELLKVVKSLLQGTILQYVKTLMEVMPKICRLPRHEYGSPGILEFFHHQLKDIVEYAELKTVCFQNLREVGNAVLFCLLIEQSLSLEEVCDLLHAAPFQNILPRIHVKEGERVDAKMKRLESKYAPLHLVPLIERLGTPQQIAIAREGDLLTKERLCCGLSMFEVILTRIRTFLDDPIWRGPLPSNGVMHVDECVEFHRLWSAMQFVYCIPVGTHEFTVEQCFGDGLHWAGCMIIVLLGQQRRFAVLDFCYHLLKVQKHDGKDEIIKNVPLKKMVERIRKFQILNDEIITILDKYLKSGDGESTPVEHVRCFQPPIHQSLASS

No constants are given. Whether binding was seen depends on the method and setting. Binding seen in cells or lysates may run through a third protein. Some binding calls cover weakened binding; strength is not graded here.

The target of test [1] is eIF4E Ser209Ala, from homozygous Eif4e^S209A knockin mice (Eif4e^ki/ki) (mouse (endogenous in dentate gyrus)) (UniProt P63073). The test is described as follows: pull-down; m^7GTP cap-pulldown: 250-300 ug dentate gyrus lysate with 30 ul 7-methyl GTP-agarose beads, 90 min at 4 °C, three washes, bound proteins immunoblotted and normalised to m^7GTP-bound eIF4E; naive mice (basal) and 40 min post-HFS (ipsilateral HFS-treated DG against contralateral control). In general terms: Immunoblotting shows a protein as a band on a membrane.

In test [2] the target is eukaryotic initiation factor 4E (eIF4E), wild-type mice (Eif4e^+/+) (mouse (endogenous in dentate gyrus)) (UniProt P63073). The test is described as above.

Take “cytoplasmic FMRP interacting protein-1 (CYFIP1) (from UniProt Q7TMB8 1-1253)”: the binding result in test [1] and in test [2] was “binds” each time.

B1: eIF4E-binding protein 2 (4E-BP2) (protein, UniProt P70445 1-120)
chain: MSASAGGSHQPSQSRAIPTRTVAISDAAQLPQDYCTTPGGTLFSTTPGGTRIIYDRKFLLDRRNSPMAQTPPCHLPNIPGVTSPGALIEDSKVEVNNLNNLNNHDRKHAVGDEAQFEMDI
With B1, the binding result in test [1] and in test [2] was “binds” each time.
